Reference: article PMC12040169 (PLOS Biology, 2025)
The list shows a part of the results.

tested on: T1, CTL2-GFP (C. trachomatis L2/434/Bu, GFP-expressing); parameters: species or system HeLa; Intracellular C. trachomatis growth in HeLa cells, bulk GFP fluorescence relative to DMSO; conditions: bulk GFP, single well; 28.5 h, 10 µM; inhibitor
T1 construct: L2/434/Bu, GFP-expressing

| SMILES | % of control remaining [%] |
| --- | --- |
| COc1ccc(CNC(=O)CN2C(=O)[C@@H]3CCCN3C(=O)c3ccccc32)cc1 [CBK286322] | 114.961 |
| Cc1cc(CNS(=O)(=O)c2c(C)noc2C)no1 [CBK062261] | 108.766 |
| O=C(NC1CCN(CC(F)(F)F)C1=O)c1cc(Cl)ccn1 (stereo not shown) [CBK305223] | 132.033 |
| COc1ccc2c(c1)C1(CC(=O)N(Cc3ccc(OC)c(OC)c3)C1=O)C(=O)N2C (stereo not shown) [CBK075157] | 95.582 |
| Nc1cc(S(=O)(=O)C(F)(F)F)ccc1C(=O)O [CBK286646] | 126.502 |
| Cc1cnn(C2CCN(C(=O)CC3OCCc4ccccc43)CC2)c1 (stereo not shown) [CBK304186] | 115.493 |
| N#CC1=C(SCC(=O)Nc2cccc3ccccc23)NC(=O)CC1c1ccco1 (stereo not shown) [CBK265793] | 107.894 |
| Cc1ccc(OCC(O)Cn2c(=N)n(CCN3CCCCC3)c3ccccc32)cc1 (stereo not shown) [CBK266375C] | 187.087 |
| CCS(=O)(=O)Nc1ccc(C(=O)N2CCN(c3ccccc3)CC2)cc1 [CBK304345] | 127.504 |
| Cc1cc(OCC(=O)NN2CCN(C)CC2)ccc1[N+](=O)[O-] [CBK268136] | 104.969 |
| CCOC(=O)Cn1ncc2c3sc(C)cc3n(CC)c2c1=O [CBK284185] | 101.28 |
| O=C(CCC1CCCCC1)N1CCC(c2n[nH]cc2C(=O)N2CCc3ccccc3C2)CC1 [CBK286271] | 130.714 |
| CCCn1cc(NC(=O)NC(CC)(CO)c2ccccc2)ccc1=O (stereo not shown) [CBK305060] | 123.881 |
| CC(=O)c1ccc(-c2nc(NC(=O)c3cccs3)cnc2-c2ccc(F)cc2)s1 [CBK037558] | 145.481 |
| CN(C)S(=O)(=O)c1ccc(C(=O)C2=C(O)C(=O)N(Cc3cccnc3)C2c2ccccc2)cc1 (stereo not shown) [CBK264667] | 95.6972 |
| O=C(O)/C=C\C(=O)Nc1ccc(OCC(=O)O)cc1 [CBK264449] | 94.2439 |
| CC1CCCC(N2CCN(Cc3ccccn3)CC2)C1 (stereo not shown) [CBK263450] | 100 |
| O=C(COc1ccc(Cl)cc1Cl)Nc1cccc(NC(=O)c2ccccc2Cl)c1 [CBK264726] | 100 |
| O=C(Cc1cccc2ccccc12)NC(=S)Nc1cccc(C(=O)O)c1 [CBK267471] | 159.441 |
| COC(=O)CSc1nnc(-c2cc(Cl)ccc2OC)[nH]1 [CBK270248] | 122.021 |
| O=[N+]([O-])c1ccc(O)c(/C=N/C(CO)(CO)CO)c1 [CBK261835] | 99.9065 |
| O=C(CCN1C(=O)/C(=C\C=C\c2ccccc2)SC1=S)Nc1cccc(C(=O)O)c1 [CBK264798] | 118.236 |
| COc1ccccc1N1CCN(CC(=O)NC2CC3CCC2C3)CC1 (stereo not shown) [CBK269162] | 136.602 |
| CC(C)Nc1nc(Cl)nc(Nc2ccc(I)cc2)n1 [CBK027685] | 118.384 |
| CC(C)Oc1ncc(C(=O)N(CCC#N)Cc2ccco2)cc1Cl [CBK304908] | 119.739 |
| COc1ccc(S(=O)(=O)N2CCCC(C(=O)NCc3ccc4c(c3)OCO4)C2)cc1Cl (stereo not shown) [CBK268230] | 114.777 |
| COc1ccc(-c2ccc(C(=O)N(C)C)c(N3CCN(C(=O)c4ccco4)CC3)n2)cc1 [CBK106020] | 94.483 |

| SMILES | % of control remaining [%] |
| --- | --- |
| Cc1csc(Sc2nc3ccccc3nc2N2CCCC2)n1 [CBK093788] | 125.803 |
| CCOC(=O)c1cnc(SC)nc1NCCc1c[nH]c2cc(OC)ccc12 [CBK092317] | 126.946 |
| Cc1cc(S(=O)(=O)N2CCCC2)ccc1OCC(=O)NCc1ccccn1 [CBK270027] | 93.8924 |
| Cc1ccc2n1CCN(C(=O)c1cccc(-n3cnnc3)c1)C2C(C)C (stereo not shown) [CBK282444] | 120.733 |
| Cc1ccc(S(=O)(=O)N(CC(=O)NC2CC3CCC2C3)c2cc(Cl)cc(Cl)c2)cc1 (stereo not shown) [CBK263995] | 116.451 |
| COc1ccc(C(=O)N2CCC(N(C)Cc3ccc(-c4ccc(S(C)(=O)=O)cc4)nc3)CC2)cc1Cl [CBK165991T] | 120.182 |
| Cc1cc(C)cc(NC(=O)C(Cc2ccccc2)C(=O)Nc2cc(C)cc(C)c2)c1 [CBK266165] | 112.097 |
| O=C(O)c1ccccc1NC1SC(=O)N(c2ccccc2)C1=O (stereo not shown) [CBK261078] | 96.1455 |
| COc1ccccc1-c1ccc(NC(=O)CCc2nc3ccccc3[nH]2)cc1 [CBK285651] | 127.377 |
| COc1ccc(/C=N/NC(=O)c2ccc(O)cc2O)cc1COc1cc(C)c(Cl)c(C)c1 [CBK263000] | 141.799 |
| N#Cc1nc(COc2cccc(Cl)c2)oc1NCc1ccncc1 [CBK266447] | 167.335 |
| CC(C)(C)C(=O)NCCN1CCC(O)(c2ccc(F)cc2)CC1 [CBK283262] | 109.723 |
| CC(C)NC(=O)N1CCCC1c1nc(-c2ccc(Cl)cc2)c2ccccn12 (stereo not shown) [CBK046947] | 113.113 |
| O=C(NC1CCN(c2nc3cccnc3s2)CC1)c1ccsc1 [CBK304342] | 115.998 |
| CCOC(=O)CN1CCC(Oc2cncc(OCCN3CCOCC3)n2)C1 (stereo not shown) [CBK084491] | 99.7259 |
| Cc1cnc2c(Cl)c(C(=O)NCC3(CN4CCOCC4)CC3)nn2c1 [CBK306918] | 158.617 |
| CN1CCCN(c2ccc(NS(=O)(=O)c3ccc(F)cc3F)c3ccccc23)CC1 [CBK001499C] | 31.3237 |
| CCCc1c(C(=O)N2CCN(c3cnccn3)CC2)cnn1C [CBK305962] | 82.0095 |
| COc1ccc(F)cc1-c1cccc(CC2(C(=O)NC3CCCCC3)CCOCC2)c1 [CBK285541] | 98.4977 |
| O=C(NCCCc1ccccn1)c1cc2ccc(F)cc2[nH]1 [CBK283211] | 107.402 |
| Cc1ccccc1-c1nnc(NC(=O)c2ccc(N3C(=O)CCC3=O)cc2)s1 [CBK287332] | 135.007 |
| Cc1nc(Oc2ccccc2)c2c3c(sc2n1)CCCC3 [CBK131919] | 136.758 |
| COc1cc(C)c2c(N)c(C(C)=O)sc2n1 [CBK115336] | 111.805 |
| CCOc1ccc2[nH]c(C(=O)NC3CCCOC3)cc2c1 (stereo not shown) [CBK283114] | 127.271 |
| CCN1CC2(CCC1=O)CCN(Cc1nncn1C(C)C)CC2 [CBK307460] | 100.84 |
| O=C(CSc1nnc(-c2cccc(F)c2)o1)c1ccccc1 [CBK068764] | 104.295 |
| Cc1ccc(S(=O)(=O)NCCSc2nnc(Nc3ccccc3)s2)cc1 [CBK266345] | 127.257 |

| SMILES | % of control remaining [%] |
| --- | --- |
| CC(C)Oc1ncc(C(=O)Nc2ccc(OCCC(N)=O)cc2)cc1Cl [CBK305750] | 129.117 |
| CC(C)N(C(=O)CN1C(=O)N2CCN=C2c2ccccc21)C(C)C [CBK284005] | 147.146 |
| Cc1c(C(=O)NCc2ccncc2)nnn1-c1cccc(C(F)(F)F)c1 [CBK107396] | 109.564 |
| C[C@@H]1CN2CCCC2CN1Cc1ccc2ncccc2c1 (stereo partly shown) [CBK284555] | 87.6094 |
| CCc1nnc(NS(=O)(=O)c2ccc(N/C=C3\C(=O)N(c4ccc(C)cc4)N=C3C)cc2)s1 [CBK262395] | 10.0457 |
| O=C(Nc1ccc(Cl)cc1C(=O)O)c1ccccc1 [CBK269993] | 161.679 |
| Cc1cc(COC(=O)NCc2ccncc2)cc(C)n1 [CBK200136] | 91.9917 |
| CC1(C)CC(N(Cc2ccncc2)Cc2ccoc2)CC(C)(C)N1 [CBK283269] | 106.093 |
| CCOC(=O)C(CNC(=O)CNC(=O)c1ccoc1)Cc1ccccc1 (stereo not shown) [CBK305971] | 102.238 |
| Cc1ccc(NC(=O)c2ccc3nccnc3c2)c(C)n1 [CBK200219] | 108.745 |
| COc1ccccc1NS(=O)(=O)c1ccc(N2CCN3CCCC3C2)c(N)c1 (stereo not shown) [CBK001266] | 125.893 |
| CN1CCOc2ccccc2C(=O)NC/C=C/CC2(CCCN(Cc3cc[nH]n3)C2)C1=O (stereo not shown) [CBK292175] | 130.865 |
| O=c1[nH]cc(CN2CCCN(S(=O)(=O)c3ccc(C(F)(F)F)cc3Cl)CC2)c(=O)[nH]1 [CBK062975] | 85.2529 |
| CN(C)c1ccc(/C=N/NC(=O)CCn2c3ccccc3c3cc(I)ccc32)cc1 [CBK262902] | 122.311 |
| CC(NS(=O)(=O)c1ccc(F)cc1)C(=O)Nc1ccc(C(N)=O)cc1 (stereo not shown) [CBK267658] | 72.1933 |
| CN(C)CCN(C)C(=O)c1cc(Br)cnc1N1CCN(C(=O)c2ccco2)CC1 [CBK076514] | 113.113 |
| Cc1noc(C)c1S(=O)(=O)Nc1nnn[nH]1 [CBK062378] | 80.6512 |
| CC(C)CC(=O)Nc1ccc2nc(SCC(=O)O)sc2c1 [CBK299801] | 127.7 |
| CCc1c(C)sc2ncn(C3CCNCC3)c(=O)c12 [CBK282972] | 114.051 |
| COc1ccc(OC)c(NC(=O)Cn2cc(C(C)=O)c3ccccc32)c1 [CBK268661] | 132.573 |
| COc1nccnc1OC1CCN(CCc2ccc3ccccc3c2)CC1 [CBK084264] | 110.215 |
| CCOC(=O)[C@H]1CC[C@]2(CC1)CNC(=O)c1ccccc1O2 [CBK284893] | 125.93 |
| Cc1cc(C)c(-n2nnnc2SCc2ccc(F)cc2)c(C)c1 [CBK100994] | 76.0909 |
| Nc1c(C(=O)O)nnn1Cc1ccccc1 [CBK263796] | 100 |
| Cc1c(Cl)cccc1CNC(=O)CC1SC(NCC2CCCCC2)=NC1=O (stereo not shown) [CBK067017] | 101.801 |

As a working copy, some entries already given.

| SMILES | % of control remaining [%] |
| --- | --- |
| Cc1c(C(=O)NCc2ccncc2)nnn1-c1cccc(C(F)(F)F)c1 [CBK107396] | 109.564 |
| C[C@@H]1CN2CCCC2CN1Cc1ccc2ncccc2c1 (stereo partly shown) [CBK284555] | 87.6094 |
| CCc1nnc(NS(=O)(=O)c2ccc(N/C=C3\C(=O)N(c4ccc(C)cc4)N=C3C)cc2)s1 [CBK262395] | 10.0457 |
| O=C(Nc1ccc(Cl)cc1C(=O)O)c1ccccc1 [CBK269993] | 161.679 |
| Cc1cc(COC(=O)NCc2ccncc2)cc(C)n1 [CBK200136] | 91.9917 |
